In patent publication US20240279281A1 (Janssen Pharmaceutica NV, priority 2023, published 2024):

Experiment: general procedure: Fmoc solid-phase peptide synthesis; Rink-amide MBHA resin or CTC resin; HATU/DIEA; DIC/Oxyma on the synthesizer
Settings: for cyclisation yield: cyclisation step; for final HPLC purity / isolated yield: whole synthesis; for final HPLC purity: analysis on a C18 column, flow rate 1 mL/min; for isolated yield: overall
[1] = for this step, one disulfide bridge

**Q.** With “MeCO-Pen(3)-E(2)-T-7MeW-K(Ac)-Pen(3)-AEF(2)-6OH2Nal-THP-K(Ac)-N-3Pya-Sar-CONH2” as the substance, how does the cyclisation yield (for this step, bicyclic) read?
**A.** 8.28% yield for this step

**Q.** And the “final HPLC purity” value (bicyclic)?
**A.** 98.2% purity

**Q.** What about the isolated yield (bicyclic) of the same substance?
**A.** over all yield: 7.41%

**Q.** With “MeCO-Pen(3)-N(N(Me)2)-T-7MeW-Dab(NMecarn)-Pen(3)-AEF-6OH2Nal-THP-Dab(NMecarn)-N-3Pya-Sar-CON(Me)2” as the substance, how does the cyclisation yield (one disulfide bridge) read?
**A.** Yield=23%

**Q.** What does the source list for “MeCO-Pen(3)-N-T-7MeW-K(Ac)-Pen(3)-AEF-6OH2Nal-THP-E-N-3Pya-Sar-K(PEG2PEG2gEC18OH)—CONH2”?
**A.** cyclisation yield [1]: 12.9% yield for this step; final HPLC purity (one disulfide bridge): 96.1% purity; isolated yield (one disulfide bridge): over all yield: 10.6%

**Q.** For “MeCO-k(d)-Pen(3)-N-T-7MeW-K(Ac)-Pen(3)-AEF-6OH2Nal-THP-E-N-3Pya-Sar-CONH2”, which cyclisation yield (one disulfide bridge) is on record?
**A.** Yield=31%

**Q.** What does the source list for “MeCO-r-Pen(3)-N-T-7(3NAcPh)W-K(Ac)-Pen(3)-AEF-6OH2Nal-THP-E-N-3Pya-Sar-CONH2”?
**A.** cyclisation yield [1]: 26.0% yield for this step; final HPLC purity (one disulfide bridge): 90.8% purity; isolated yield (one disulfide bridge): over all yield: 21.4%

**Q.** For “MeCO-r-Pen(3)-N-T-7MeW-K(Ac)-Pen(3)-AEF-6OH2Nal-THP-E-N-3Pya-Sar-K(PEG2NMePEG2NMegENMeCl8Tetrazole)-CONH2”, which cyclisation yield [1] is on record?
**A.** 8.08% yield for this step

**Q.** And the “final HPLC purity” value (one disulfide bridge)?
**A.** 96.1% purity

**Q.** What about the isolated yield (one disulfide bridge) of the same substance?
**A.** over all yield: 6.08%

**Q.** With “MeCO-r-Pen(3)-N-T-7MeW-K(Ac)-Pen(3)-AEF-6OH2Nal-THP-E-N-3Pya-Sar-K(PEG2PEG2gEC18OH)—CONH2” as the substance, how does the cyclisation yield [1] read?
**A.** 12.1% yield for this step

**Q.** And the “final HPLC purity” value (one disulfide bridge)?
**A.** 93.2% purity

**Q.** What about the isolated yield (one disulfide bridge) of the same substance?
**A.** over all yield: 10.4%

**Q.** For “cPEG3aCO-Pen(3)-N-T-7MeW-K(NMecPEG3a)-Pen(3)-AEF-6OH2Nal-THP-K(NMecPEG3a)-N-3Pya-Sar-CONH2”, which cyclisation yield [1] is on record?
**A.** 11.7% yield for this step

**Q.** And the “final HPLC purity” value (one disulfide bridge)?
**A.** 96.9% purity

**Q.** What about the isolated yield (one disulfide bridge) of the same substance?
**A.** over all yield: 9.54% yield
